Data taken from patent US10202469B2, “Sugar chain-attached linker, compound containing sugar chain-attached linker and physiologically active substance or salt thereof, and method for producing same” (Glytech, Inc., priority 2012, dated 2019).
Not every detail of the peptide structures is certain; ends, links or a residue may be inferred. At least one compound was matched to its structure with a doubt left. Some of these results come from one statement about several compounds together.

Assay: Tracing of hydrolysis behavior in aqueous solution by HPLC (hydrolysis half-life)
Settings: for Hydrolysis product found by HPLC analysis: after hydrolysis test in buffer solution
Protocol: […] A given amount of each solution was injected to HPLC at appropriate time intervals to trace the hydrolysis reaction. The relative starting material concentration was determined from an HPLC peak area corresponding to the starting material. The relative concentration of the starting material was plotted against incubation time. […] Also, the terminal half-life t1/2 of the starting material was calculated according to the expression t1/2=ln(2)/k (wherein k represents the slope of the linear plot).

CC(=O)N[C@@H]1[C@@H](O)[C@H](O[C@@H]2O[C@H](CO)[C@@H](O[C@@H]3O[C@H](CO[C@H]4O[C@H](CO)[C@@H](O)[C@H](O)[C@@H]4O[C@@H]4O[C@H](CO)[C@@H](O[C@@H]5O[C@H](CO[C@]6(C(=O)O)C[C@H](O)[C@@H](NC(C)=O)[C@H]([C@H](O)[C@H](O)CO)O6)[C@H](O)[C@H](O)[C@H]5O)[C@H](O)[C@H]4NC(C)=O)[C@@H](O)[C@H](O[C@H]4O[C@H](CO)[C@@H](O)[C@H](O)[C@@H]4O[C@@H]4O[C@H](CO)[C@@H](O[C@@H]5O[C@H](CO[C@]6(C(=O)O)C[C@H](O)[C@@H](NC(C)=O)[C@H]([C@H](O)[C@H](O)CO)O6)[C@H](O)[C@H](O)[C@H]5O)[C@H](O)[C@H]4NC(C)=O)[C@@H]3O)[C@H](O)[C@H]2NC(C)=O)[C@@H](CO)O[C@H]1NC(=O)CSC[C@H](NC(=O)c1ccc(COC(=O)[C@H](CC(C)C)NC(=O)[C@H](CC(C)C)NC(=O)[C@H](C)NC(=O)[C@H](CC(C)C)NC(=O)[C@H](CC(C)C)NC(=O)[C@H](CC(C)C)NC(=O)CNC(=O)[C@H](Cc2c[nH]c3ccccc23)NC(=O)[C@@H](N)CCCNC(=N)N)cc1)C(N)=O [compound 8]
Hydrolysis product found by HPLC analysis: gradually hydrolyzed to produce the unmodified HER2(8-16) peptide (compound 10) | Formed hydrolysate 10 relative to the starting material (pH 4.0, 37° C., after the 48-hour tracing): ≤ 1%

CC(=O)N[C@@H]1[C@@H](O)[C@H](O[C@@H]2O[C@H](CO)[C@@H](O[C@@H]3O[C@H](CO[C@H]4O[C@H](CO)[C@@H](O)[C@H](O)[C@@H]4O[C@@H]4O[C@H](CO)[C@@H](O[C@@H]5O[C@H](CO)[C@H](O)[C@H](O)[C@H]5O)[C@H](O)[C@H]4NC(C)=O)[C@@H](O)[C@H](O[C@H]4O[C@H](CO)[C@@H](O)[C@H](O)[C@@H]4O[C@@H]4O[C@H](CO)[C@@H](O[C@@H]5O[C@H](CO)[C@H](O)[C@H](O)[C@H]5O)[C@H](O)[C@H]4NC(C)=O)[C@@H]3O)[C@H](O)[C@H]2NC(C)=O)[C@@H](CO)O[C@H]1NC(=O)CSCCSC(=O)[C@H](CC(C)C)NC(=O)[C@H](CC(C)C)NC(=O)[C@H](C)NC(=O)[C@H](CC(C)C)NC(=O)[C@H](CC(C)C)NC(=O)[C@H](CC(C)C)NC(=O)CNC(=O)[C@H](Cc1c[nH]c2ccccc12)NC(=O)[C@@H](N)CCCNC(=N)N [compound 20]
Hydrolysis product found by HPLC analysis: production of the unmodified HER2(8-16) peptide (compound 10) was confirmed
